## Screening data, single-dose tests

Measurements from “University of Dundee, Small-Polar-MMV Screening Library” (2021), ChEMBL document CHEMBL3988442.

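Assay of Toxoplasma gondii numbers, read through their beta-galactosidase reporter with a colour substrate. Tested at 50 µM. The record gives no direction; the compounds picked for IC50 retests had high values, so higher reads as fewer parasites. Size under these conditions: about 18,000 compounds, about 170 of them at 50% or above in at least one test.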

Values are the deposited “Percent Effect”, in %.
The record does not define 0% and 100%; most values in the screen are far below 50% and negative numbers occur (in some assays of this library far below -100).
The compounds are a random part of those screened.

Compound,Percent Effect
NC1CCN(c2ncc(C(F)(F)F)cc2Cl)C1 (centres unmarked),-0.1576%
CN(Cc1nccs1)c1cc([C@H]2C[C@@H](O)C2)nc(N)n1,-12.25%
COc1cc(CN)ccc1OCC(N)=O,19.26%
COc1ccc(C(=O)N2CCC(N)CC2)cc1OC,-22.1%
CCCn1cc(S(=O)(=O)N2C[C@H](C3CC3)[C@@H](N)C2)cn1,8.786%
CCn1nccc1[C@@H]1OCC[C@H]1CN,1.434%
NC(=O)CN1CCC(OCc2ccccc2)CC1,-24.02%
CC(C)C(N)c1nncn1C (centres unmarked),-3.084%
C[C@@H](N)c1ccc(Cl)cn1,5.745%
C[C@@H](O)CNCC1=Cc2ccccc2OC1,-4.4%
CS(=O)(=O)NCCCN1CCCCC(N)C1 (centres unmarked),-7.363%
O=C1CNCCN1c1cccc2cnccc12,-7.933%
O=C(c1cc(O)cc(O)c1)N1CCc2cnccc21,-24.98%
CC(C)CCNC(=O)CCC(=O)NCCCOC(C)C,-5.98%
CSc1ccc(C(=O)NC(C)Cn2cncn2)cc1 (centres unmarked),-1.491%
O=C(NCCO)NC1CCOc2ccccc21 (centres unmarked),20.79%
Cc1nn(C)c2nc(NCC3CCOC3)sc12 (centres unmarked),-13.66%
CCc1ccsc1C(=O)NC(C)c1ncon1 (centres unmarked),-3.677%
NCCCc1nc2c(s1)CCCC2,2.767%
CCOC(=O)N1CCC(Nc2ncccc2C#N)CC1,-2.489%
COC(=O)C(C)(C)NC(=O)Cc1ccc(F)cc1,-2.224%
CCc1ccc(CN2CCN3CCN(C)CC3C2)o1 (centres unmarked),-17.21%
CN(C)CCNC(N)=O,-13.49%
CN(Cc1ccsc1)C(=O)c1nccnc1N,-5.898%
O=C(Cc1cncs1)N1CCSc2ccncc21,18.51%
Cc1ccc(C(=O)NCCCN(C)C)o1,2.434%
CN(Cc1cc(C2CC2)[nH]n1)C(=O)Cc1cccnc1,4.306%
CCN1C[C@H](NC(=O)c2cnc(SC)nc2)[C@@H](OC)C1,12.13%
NC(=O)CN1CCCN(C(=O)c2ccc(Br)o2)CC1,-5.913%
CC(C)Cc1cc(CN)on1,13.92%
CCS(=O)(=O)NC1CCN(c2cc(Br)ccn2)CC1,21.55%
Cn1nccc1C1COCCN1 (centres unmarked),10.11%
COCCNS(=O)(=O)c1ccc2c(c1)CCO2,-3.248%
Cc1nn(C)c(C)c1C(C)NC(=O)CN1CCCC1 (centres unmarked),-15.32%
CCCSCCNC(=O)Nc1ccc2[nH]nnc2c1,-12.98%
O=C(C1CC1)N1CCC(Oc2cccnc2)C1 (centres unmarked),1.461%
CCOc1ncc(C(=O)NCc2ccnn2C)cc1Cl,4.352%
Cc1ccccc1CNC(=O)CSc1nnc(N)s1,-10.15%
CCc1ccc(C(=O)NC(C)c2cccnc2)o1 (centres unmarked),-2.224%
OC(c1ccccc1)C1CCNCC1 (centres unmarked),-7.409%

The first 5 entries again:

| Compound | Percent Effect |
|---|---|
| `NC1CCN(c2ncc(C(F)(F)F)cc2Cl)C1` (centres unmarked) | -0.1576% |
| `CN(Cc1nccs1)c1cc([C@H]2C[C@@H](O)C2)nc(N)n1` | -12.25% |
| `COc1cc(CN)ccc1OCC(N)=O` | 19.26% |
| `COc1ccc(C(=O)N2CCC(N)CC2)cc1OC` | -22.1% |
| `CCCn1cc(S(=O)(=O)N2C[C@H](C3CC3)[C@@H](N)C2)cn1` | 8.786% |